# Assay results from patent publication US20260284208A1, “SYSTEM” (Oxford University Innovation Limited, priority 2023, published 2026).
# This continues a long series; more values of the same kind are listed elsewhere.
# Test system: library of 8,380 IKZF3 degrons (ZF-eGFP/mCherry reporter) in Jurkat cells
# Test: Pooled library screen (FACS, NGS, limma voom LogFC of positive vs negative read counts)
# Format: cell-based, human
# Description: A library of 8,380 IKZF3 degrons was cloned into pLVX-Sprout to create the eGFP/mCherry protein degradation reporter plasmid pool. A lentivirus pool was then generated using the Lenti-X lentiviral vector production method.
# Jurkat cells were transduced at a multiplicity of infection of <0.3 with the lentivirus vector library in order to maximise the number of cells with a single integration. Transductions were carried out in 6 well TC-treated cell culture dishes (Falcon) with 3×10^6 cells per well. Cells were incubated for 2 days at 37° C. and 5% CO2 before the supernatant was removed and replaced with fresh media. 6 days post-transduction, mCherry+ cells were isolated via FACS using the FACS Aria Fusion (BD) in a buffer containing PBS (Gibco), 2 mM EDTA (Gibco), 25 mM HEPES (Sigma) and 1% BSA (Sigma). 8 days later, cells were treated with DMSO or a thalidomide analog for 18 hours at 37° C. and 5% CO2. mCherry+GFPlow and NOT(mCherry+GFPlow) cells were sorted by FACS using the FACS Aria Fusion (BD). DMSO treated cells were used to set the mCherry+GFPlow gate and dead cells were excluded from sorting by staining cells with 1 μg/mL DAPI (ThermoFisher). gDNA was isolated using the Maxwell RSC 48 (Promega). gDNA from cells that were unsorted and untreated were also isolated to determine the library representation on the day of compound treatment. Throughout the screen >600× coverage of the library was maintained. 3 biological replicates were carried out with a new transduction taking place each time.
# A two-step PCR was used where the first PCR (PCR1) amplified the integrated degron sequence from gDNA and the second PCR (PCR2) added Illumina adaptors and barcodes to permit multiplexing. See Supp F for PCR1 and PCR2 primers. Q5 Hot Start High-Fidelity 2× Master Mix (New England Biolabs) was used for both PCRs. Sufficient gDNA was amplified in PCR1 in order to maintain >600× coverage and amplicons were purified using solid phase reversible immobilization (SPRI) beads (Beckman Coulter). Purified PCR1 products were analysed on the Tapestation 4200 (Agilent) to confirm purity prior to proceeding to PCR2. Sufficient PCR1 product was amplified in PCR2 in order to maintain >600× coverage and amplicons were run on a 2% agarose TAE gel. Target bands were excised and purified using the NucleoSpin Gel and PCR Clean-up Kit (Machery Nagel). Amplicons were analysed on the Tapestation 4200 and quantified using Qubit dsDNA HS kit (ThermoFisher). PCR products were pooled and sequenced as paired-reads on the NovaSeq (Illumina) using a SP2 200 cycles kit (Illumina).
# Count distributions, percentage of read mapping, library coverage and replicate correlation per sample were assessed for QC purposes.
# To carry out the library screen, we used the same plasmid construct as in our earlier flow cytometry assays, but pooling all 8,380 mutants together into one Jurkat population, ensuring a copy number of one plasmid per cell (FIG. 4B). […] These GFP-negative cells were then separated from the remaining GFP-positive population using fluorescence activated cell sorting (FACS). These two populations were then sequenced and the relative abundance of every mutant in both populations compared to provide a log FC value for each mutant sequence. This value indicated how frequently a sequence is observed in the GFP-negative population relative to the GFP-positive population, and therefore how effective a degron it is for that particular IMID compound.
smiles,measurement,setting,value
"O=C1CCC(N2C(=O)c3ccccc3C2=O)C(=O)N1 (centres unmarked) [A32, 2-(2,6-dioxopiperidin-3-yl)isoindoline-1,3-dione]",A32_logFC,"Degron-ID 900, SEQ ID NO 190, 46F_47E_49P_50I_52G_53A_54A_55F_67L",3.111
same,A32_logFC,"Degron-ID 951, SEQ ID NO 175, 46F_47E_49P_50V_52G_53A_54N_55F_67L",3.164
same,A32_logFC,"Degron-ID 1740, SEQ ID NO 197, 46F_47I_49E_50I_52G_53A_54A_55F_67L",3.086
same,A32_logFC,"Degron-ID 1753, SEQ ID NO 176, 46F_47I_49E_50I_52G_53A_54Q_55F_67L",3.164
same,A32_logFC,"Degron-ID 1792, SEQ ID NO 173, 46F_47I_49E_50V_52G_53A_54P_55F_67L",3.168
same,A32_logFC,"Degron-ID 1872, SEQ ID NO 177, 46F_47I_49P_50I_52G_53A_54P_55F_67L",3.163
same,A32_logFC,"Degron-ID 2232, SEQ ID NO 174, 46F_47L_49E_50I_52G_53A_54P_55F_67L",3.168
same,A32_logFC,"Degron-ID 2352, SEQ ID NO 164, 46F_47L_49P_50I_52G_53A_54P_55F_67L",3.184
same,A32_logFC,"Degron-ID 2896, SEQ ID NO 141, 46F_47Q_49D_50I_52G_53A_54T_55F_67L",3.249
same,A32_logFC,"Degron-ID 2897, SEQ ID NO 172, 46F_47Q_49D_50I_52G_53A_54V_55F_67L",3.169
same,A32_logFC,"Degron-ID 2936, SEQ ID NO 179, 46F_47Q_49D_50V_52G_53A_54T_55F_67L",3.156
same,A32_logFC,"Degron-ID 2940, SEQ ID NO 37, 46F_47Q_49E_50I_52G_53A_54A_55F_67L",3.644
same,A32_logFC,"Degron-ID 2945, SEQ ID NO 196, 46F_47Q_49E_50I_52G_53A_54G_55F_67L",3.088
same,A32_logFC,"Degron-ID 2946, SEQ ID NO 168, 46F_47Q_49E_50I_52G_53A_54H_55F_67L",3.172
same,A32_logFC,"Degron-ID 2947, SEQ ID NO 29, 46F_47Q_49E_50I_52G_53A_54I_55F_67L",3.675
same,A32_logFC,"Degron-ID 2951, SEQ ID NO 46, 46F_47Q_49E_50I_52G_53A_54N_55F_67L",3.591
same,A32_logFC,"Degron-ID 2952, SEQ ID NO 19, 46F_47Q_49E_50I_52G_53A_54P_55F_67L",3.722
same,A32_logFC,"Degron-ID 2954, SEQ ID NO 23, 46F_47Q_49E_50I_52G_53A_54R_55F_67L",3.704
same,A32_logFC,"Degron-ID 2955, SEQ ID NO 16, 46F_47Q_49E_50I_52G_53A_54S_55F_67L",3.748
same,A32_logFC,"Degron-ID 2957, SEQ ID NO 153, 46F_47Q_49E_50I_52G_53A_54V_55F_67L",3.222
same,A32_logFC,"Degron-ID 2959, SEQ ID NO 146, 46F_47Q_49E_50I_52G_53A_54Y_55F_67L",3.234
same,A32_logFC,"Degron-ID 2976, SEQ ID NO 191, 46F_47Q_49E_50Q_52G_53A_54T_55F_67L",3.098
same,A32_logFC,"Degron-ID 2980, SEQ ID NO 34, 46F_47Q_49E_50V_52G_53A_54A_55F_67L",3.65
same,A32_logFC,"Degron-ID 2981, SEQ ID NO 28, 46F_47Q_49E_50V_52G_53A_54C_55F_67L",3.686
same,A32_logFC,"Degron-ID 2982, SEQ ID NO 193, 46F_47Q_49E_50V_52G_53A_54D_55F_67L",3.091
same,A32_logFC,"Degron-ID 2983, SEQ ID NO 25, 46F_47Q_49E_50V_52G_53A_54E_55F_67L",3.698
same,A32_logFC,"Degron-ID 2985, SEQ ID NO 156, 46F_47Q_49E_50V_52G_53A_54G_55F_67L",3.214
same,A32_logFC,"Degron-ID 2987, SEQ ID NO 24, 46F_47Q_49E_50V_52G_53A_54I_55F_67L",3.703
same,A32_logFC,"Degron-ID 2989, SEQ ID NO 158, 46F_47Q_49E_50V_52G_53A_54L_55F_67L",3.208
same,A32_logFC,"Degron-ID 2993, SEQ ID NO 12, 46F_47Q_49E_50V_52G_53A_54Q_55F_67L",3.772
same,A32_logFC,"Degron-ID 2994, SEQ ID NO 22, 46F_47Q_49E_50V_52G_53A_54R_55F_67L",3.706
same,A32_logFC,"Degron-ID 2996, SEQ ID NO 18, 46F_47Q_49E_50V_52G_53A_54T_55F_67L",3.745
same,A32_logFC,"Degron-ID 2997, SEQ ID NO 20, 46F_47Q_49E_50V_52G_53A_54V_55F_67L",3.711
same,A32_logFC,"Degron-ID 3003, SEQ ID NO 142, 46F_47Q_49N_50I_52G_53A_54E_55F_67L",3.243
same,A32_logFC,"Degron-ID 3012, SEQ ID NO 21, 46F_47Q_49N_50I_52G_53A_54P_55F_67L",3.709
same,A32_logFC,"Degron-ID 3040, SEQ ID NO 192, 46F_47Q_49N_50V_52G_53A_54A_55F_67L",3.094
same,A32_logFC,"Degron-ID 3041, SEQ ID NO 157, 46F_47Q_49N_50V_52G_53A_54C_55F_67L",3.208
same,A32_logFC,"Degron-ID 3061, SEQ ID NO 13, 46F_47Q_49P_50I_52G_53A_54C_55F_67L",3.771
same,A32_logFC,"Degron-ID 3063, SEQ ID NO 43, 46F_47Q_49P_50I_52G_53A_54E_55F_67L",3.607
same,A32_logFC,"Degron-ID 3065, SEQ ID NO 26, 46F_47Q_49P_50I_52G_53A_54G_55F_67L",3.691
same,A32_logFC,"Degron-ID 3070, SEQ ID NO 41, 46F_47Q_49P_50I_52G_53A_54M_55F_67L",3.616
same,A32_logFC,"Degron-ID 3072, SEQ ID NO 32, 46F_47Q_49P_50I_52G_53A_54P_55F_67L",3.651
same,A32_logFC,"Degron-ID 3073, SEQ ID NO 36, 46F_47Q_49P_50I_52G_53A_54Q_55F_67L",3.649
same,A32_logFC,"Degron-ID 3077, SEQ ID NO 30, 46F_47Q_49P_50I_52G_53A_54V_55F_67L",3.672
same,A32_logFC,"Degron-ID 3096, SEQ ID NO 167, 46F_47Q_49P_50Q_52G_53A_54T_55F_67L",3.174
same,A32_logFC,"Degron-ID 3100, SEQ ID NO 27, 46F_47Q_49P_50V_52G_53A_54A_55F_67L",3.688
same,A32_logFC,"Degron-ID 3103, SEQ ID NO 14, 46F_47Q_49P_50V_52G_53A_54E_55F_67L",3.762
